Experimental data published in article PMC5662737, “Structural and mechanistic insights into ATRX-dependent and -independent functions of the histone chaperone DAXX” (Nature Communications, 2017).
Results are given in words; binding and its absence hold for the method and conditions named. Binding seen in cells or lysates may run through a third protein. Some binding calls cover weakened binding; strength is not graded here. For some assays here: Sequences can lack the tags named with a protein. Each block holds one substance with its values, some of them ahead of it.

The chains behind the UniProt entries cited, without tags or fusion partners. Where a name states a change or a piece, a line headed by the entry shows the natural chain unless it says otherwise.
UniProt Q9UER7: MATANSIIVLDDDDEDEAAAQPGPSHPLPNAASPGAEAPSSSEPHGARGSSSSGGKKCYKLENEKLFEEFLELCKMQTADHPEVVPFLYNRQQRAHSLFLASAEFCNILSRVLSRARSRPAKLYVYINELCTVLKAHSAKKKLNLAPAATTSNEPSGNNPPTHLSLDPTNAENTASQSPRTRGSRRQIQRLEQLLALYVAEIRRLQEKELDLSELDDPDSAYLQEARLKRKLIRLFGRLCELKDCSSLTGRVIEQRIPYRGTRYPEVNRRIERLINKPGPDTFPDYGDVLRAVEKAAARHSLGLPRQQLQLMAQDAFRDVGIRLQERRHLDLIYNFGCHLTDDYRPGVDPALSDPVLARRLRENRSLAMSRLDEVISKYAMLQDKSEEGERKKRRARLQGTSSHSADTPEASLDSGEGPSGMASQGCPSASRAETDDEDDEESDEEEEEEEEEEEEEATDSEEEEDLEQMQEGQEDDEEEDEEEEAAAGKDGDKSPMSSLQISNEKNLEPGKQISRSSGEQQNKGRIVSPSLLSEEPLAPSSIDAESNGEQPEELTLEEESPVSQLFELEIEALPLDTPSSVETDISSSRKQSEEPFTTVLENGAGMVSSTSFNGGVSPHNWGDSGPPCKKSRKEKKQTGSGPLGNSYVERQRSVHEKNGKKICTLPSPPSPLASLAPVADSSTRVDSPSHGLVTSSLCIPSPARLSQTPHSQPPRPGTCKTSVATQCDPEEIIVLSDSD
UniProt O35613: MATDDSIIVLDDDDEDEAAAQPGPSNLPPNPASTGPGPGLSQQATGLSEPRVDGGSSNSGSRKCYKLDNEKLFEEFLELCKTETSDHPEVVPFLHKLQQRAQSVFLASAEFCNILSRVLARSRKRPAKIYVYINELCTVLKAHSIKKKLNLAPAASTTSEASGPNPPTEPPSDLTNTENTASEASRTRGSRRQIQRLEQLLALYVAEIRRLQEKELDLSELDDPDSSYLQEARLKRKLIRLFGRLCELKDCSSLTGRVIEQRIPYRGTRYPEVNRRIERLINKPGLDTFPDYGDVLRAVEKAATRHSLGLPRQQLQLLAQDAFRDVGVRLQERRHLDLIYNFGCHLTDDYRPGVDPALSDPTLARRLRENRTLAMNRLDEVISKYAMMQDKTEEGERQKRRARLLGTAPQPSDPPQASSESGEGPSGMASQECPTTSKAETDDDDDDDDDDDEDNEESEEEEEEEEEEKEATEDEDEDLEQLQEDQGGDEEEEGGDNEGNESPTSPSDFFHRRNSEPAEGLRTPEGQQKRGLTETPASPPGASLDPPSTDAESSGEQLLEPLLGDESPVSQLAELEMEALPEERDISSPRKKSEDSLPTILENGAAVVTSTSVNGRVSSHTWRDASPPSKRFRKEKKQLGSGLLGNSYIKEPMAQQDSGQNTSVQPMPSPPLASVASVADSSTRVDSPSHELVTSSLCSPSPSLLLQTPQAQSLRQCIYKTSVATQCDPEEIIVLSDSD
UniProt Q13263: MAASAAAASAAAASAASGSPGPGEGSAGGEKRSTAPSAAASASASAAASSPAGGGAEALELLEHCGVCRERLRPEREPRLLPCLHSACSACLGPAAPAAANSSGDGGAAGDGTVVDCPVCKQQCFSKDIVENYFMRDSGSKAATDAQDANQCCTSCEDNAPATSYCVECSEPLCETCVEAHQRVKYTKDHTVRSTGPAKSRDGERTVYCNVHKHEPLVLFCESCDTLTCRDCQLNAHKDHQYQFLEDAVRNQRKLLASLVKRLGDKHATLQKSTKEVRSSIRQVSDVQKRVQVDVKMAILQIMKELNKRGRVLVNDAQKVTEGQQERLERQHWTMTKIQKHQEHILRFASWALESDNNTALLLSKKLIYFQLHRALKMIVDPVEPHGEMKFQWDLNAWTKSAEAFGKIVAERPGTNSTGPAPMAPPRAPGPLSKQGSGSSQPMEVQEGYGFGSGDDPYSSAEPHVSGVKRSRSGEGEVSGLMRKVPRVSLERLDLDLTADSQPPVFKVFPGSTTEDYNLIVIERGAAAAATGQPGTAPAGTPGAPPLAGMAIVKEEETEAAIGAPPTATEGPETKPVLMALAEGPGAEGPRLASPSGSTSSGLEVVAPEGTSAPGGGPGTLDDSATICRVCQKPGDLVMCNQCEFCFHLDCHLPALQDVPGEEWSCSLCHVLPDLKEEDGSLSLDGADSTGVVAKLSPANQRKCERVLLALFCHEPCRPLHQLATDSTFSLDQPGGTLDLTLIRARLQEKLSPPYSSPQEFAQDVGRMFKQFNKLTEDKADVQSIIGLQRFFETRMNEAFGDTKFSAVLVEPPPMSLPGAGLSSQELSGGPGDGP
UniProt O09106: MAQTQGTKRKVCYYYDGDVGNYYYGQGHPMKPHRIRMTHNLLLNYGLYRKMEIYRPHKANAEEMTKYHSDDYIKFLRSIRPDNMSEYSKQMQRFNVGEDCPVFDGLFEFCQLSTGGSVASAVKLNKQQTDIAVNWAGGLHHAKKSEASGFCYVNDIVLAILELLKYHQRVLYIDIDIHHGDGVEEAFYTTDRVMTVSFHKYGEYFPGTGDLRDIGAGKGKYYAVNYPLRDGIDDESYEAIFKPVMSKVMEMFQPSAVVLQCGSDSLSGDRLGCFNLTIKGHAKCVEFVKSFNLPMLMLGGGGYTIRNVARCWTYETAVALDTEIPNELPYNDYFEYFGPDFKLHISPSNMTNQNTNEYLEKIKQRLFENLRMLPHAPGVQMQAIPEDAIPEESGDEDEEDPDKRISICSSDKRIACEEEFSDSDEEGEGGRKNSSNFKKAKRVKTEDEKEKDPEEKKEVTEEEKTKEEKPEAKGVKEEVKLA

Columns and labels:
[1] = target: FLAG-tagged human DAXX, transiently expressed in 293T cells (pRK5-FLAG-hDAXX) (human) (UniProt Q9UER7); assay: co-IP; anti-FLAG M2 IP from lysate of transiently transfected 293T cells; 300 mM KCl, 0.12% Triton X-100, 50 µg/ml ethidium bromide; 3×FLAG peptide elution; immunoblot
[2] = target: T1, GST-tagged murine ATRX DBM, wild type (mouse) (UniProt Q61687); assay: pull-down; GST-tagged proteins on glutathione beads incubated with MEF nuclear extract (200 mM KCl), 4 °C, 4 h; washes with 350 mM KCl, 0.01% NP-40; immunoblot; only the target purified
T1 sequence: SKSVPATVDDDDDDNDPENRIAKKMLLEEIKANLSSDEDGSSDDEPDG

[3] = target: FLAG-tagged murine DAXX F93A (mouse) (UniProt O35613); assay: co-IP; anti-FLAG M2 IP of FLAG-mDAXX from stably transduced MEFs (Daxx−/−); 300 mM KCl, 0.12% Triton X-100, 50 µg/ml ethidium bromide; 3×FLAG peptide elution; immunoblot
[4] = target: FLAG-tagged murine DAXX Y130A (mouse) (UniProt O35613); assay: as above
[5] = target: FLAG-tagged murine DAXX, wild type (mouse) (UniProt O35613); assay: as above

- binding [1]: binds
Substance: human KAP1, endogenous in 293T cells (from UniProt Q13263 1-835)

- binding [2]: binds
Substance: mouse DAXX, endogenous, full length (from UniProt O35613 1-739)

- binding [3]: binds
- binding [4]: binds
- binding [5]: binds
Substance: mouse HDAC1, endogenous (from UniProt O09106 1-482) (enzyme)
